Measured values reported in PMC8589989.

Assays:
[1] = system: T1, His-MBP-ZNF384 (human); experiment: pull-down; conditions: Pull-down: 10 mM Tris pH 7.5, 150 mM KCl, 5 mM MgCl2, 0.25% Tween-20, 3.5 mM DTT, 5% glycerol, 0.1% BSA, 4 C, recombinant protein, residues 1-516, protein details: His6-MBP
T1 sequence (looked up): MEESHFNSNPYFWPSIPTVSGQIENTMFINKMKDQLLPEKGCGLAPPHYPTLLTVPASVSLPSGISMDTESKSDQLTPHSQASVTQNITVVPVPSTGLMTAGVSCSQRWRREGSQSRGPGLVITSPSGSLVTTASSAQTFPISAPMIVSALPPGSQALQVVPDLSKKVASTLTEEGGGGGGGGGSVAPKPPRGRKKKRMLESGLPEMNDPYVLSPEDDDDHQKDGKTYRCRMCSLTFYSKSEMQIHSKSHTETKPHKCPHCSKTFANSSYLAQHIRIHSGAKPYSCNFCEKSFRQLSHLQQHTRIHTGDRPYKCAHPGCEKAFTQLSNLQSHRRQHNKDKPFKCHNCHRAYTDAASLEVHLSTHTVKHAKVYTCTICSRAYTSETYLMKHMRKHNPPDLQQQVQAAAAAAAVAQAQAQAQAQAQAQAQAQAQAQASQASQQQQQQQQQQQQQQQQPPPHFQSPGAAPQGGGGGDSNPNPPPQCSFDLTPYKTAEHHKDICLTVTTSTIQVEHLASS

[2] = system: His-MBP-C2H2 (ZNF384 C2H2 domain) (human); experiment: BLI; conditions: 400 nM protein, BLI: 10 mM Tris pH 7.5, 150 mM KCl, 5 mM MgCl2, 0.05% Tween-20, 0.1% BSA, 1 mM DTT, 298 K, recombinant protein, protein details: His6-MBP
[3] = system: His-MBP-N-terminus (ZNF384) (human); experiment: BLI; conditions: 400 nM protein, very poor to no binding; BLI: 10 mM Tris pH 7.5, 150 mM KCl, 5 mM MgCl2, 0.05% Tween-20, 0.1% BSA, 1 mM DTT, 298 K; recombinant protein; protein details: His6-MBP; label: 5' biotin on strand 1
[4] = system: His-MBP-C-terminus (ZNF384) (human); experiment: BLI; conditions: 400 nM protein, very poor to no binding; BLI: 10 mM Tris pH 7.5, 150 mM KCl, 5 mM MgCl2, 0.05% Tween-20, 0.1% BSA, 1 mM DTT, 298 K; recombinant protein; protein details: His6-MBP; label: 5' biotin on strand 1
[5] = system: His-MBP-C2H2 (ZNF384 C2H2 domain) (human); experiment: pull-down; conditions: Pull-down: 10 mM Tris pH 7.5, 150 mM KCl, 5 mM MgCl2, 0.25% Tween-20, 3.5 mM DTT, 5% glycerol, 0.1% BSA, 4 C, recombinant protein, protein details: His6-MBP
[6] = system: His-MBP-N-terminus (ZNF384) (human); experiment: pull-down; conditions: very poor to no binding; Pull-down: 10 mM Tris pH 7.5, 150 mM KCl, 5 mM MgCl2, 0.25% Tween-20, 3.5 mM DTT, 5% glycerol, 0.1% BSA, 4 C; recombinant protein; protein details: His6-MBP; label: 5' biotin on strand 1
[7] = system: His-MBP-C-terminus (ZNF384) (human); experiment: pull-down; conditions: very poor to no binding; Pull-down: 10 mM Tris pH 7.5, 150 mM KCl, 5 mM MgCl2, 0.25% Tween-20, 3.5 mM DTT, 5% glycerol, 0.1% BSA, 4 C; recombinant protein; protein details: His6-MBP; label: 5' biotin on strand 1
[8] = system: His-MBP; experiment: pull-down; conditions: not detectable; Pull-down: 10 mM Tris pH 7.5, 150 mM KCl, 5 mM MgCl2, 0.25% Tween-20, 3.5 mM DTT, 5% glycerol, 0.1% BSA, 4 C; recombinant protein; protein details: His6-MBP; label: 5' biotin on strand 1
[9] = label: 5' biotin, single-stranded DNA
[10] = seemingly lower affinity than ssDNA, label: 5' biotin on strand 2

Sequence: GCGATCATGACGTAGACGATAGCGTTCTTTTTTTTTCTTTTTCT (double strand) [dsDNA3'-T]
- binding result ([1]; bound poorly, if at all, to dsDNA, label: 5' biotin on strand 1): binds more weakly

Sequence: GCGATCATGACGTAGACGATAGCGTTCTTTTTTTTTCTTTTTCT / CGCTATCGTCTACGTCATGATCGC [3' overhang DNA]
- binding result ([2]; comparable to full length, label: 5' biotin on strand 1): binds
- binding result [3]: no binding
- binding result [4]: no binding
- binding result ([5]; seemingly lower affinity than ssDNA, label: 5' biotin on strand 1): binds
- binding result [6]: no binding
- binding result [7]: no binding
- binding result [8]: no binding

Sequence: TTCTTTTTTTTTCTTTTTCTGCGATCATGACGTAGACGATAGCG (double strand) [dsDNA5'T]
- binding result ([1]; bound poorly, if at all, to dsDNA, label: 5' biotin on strand 2): binds more weakly

Sequence: GCGATCATGACGTAGACGATAGCGTTCTTTTTTTTTCTTTTTCT [ssDNA T-strand (ssDNA(T))]
- binding result [2, 9]: binds
- binding result [5, 9]: binds

Sequence: CGCTATCGTCTACGTCATGATCGCAGAAAAAGAAAAAAAAAGAA [ssDNA A-strand]
- binding result ([1]; T-rich preferred as opposed to A-rich ssDNA, label: 5' biotin, single-stranded DNA): binds more weakly

Sequence: TTCTTTTTTTTTCTTTTTCTGCGATCATGACGTAGACGATAGCG / CGCTATCGTCTACGTCATGATCGC [5' overhang DNA]
- binding result [2, 10]: binds
- binding result [5, 10]: binds

For some assays here: A weaker result is weaker than the reference pair of the same experiment. For some assays here: Where a protein sequence is shown, tags need not be part of it. For at least one entry, the source does not settle the construct or the ends of the probe. For some assays here: Negatives hold for the conditions tested. For some assays here: At least one verdict was read from the data and is not stated in words by the source.
